Reference: PMC7830406

Biological target: bZIP52-GFP (Arabidopsis thaliana)
Assay: affinity purification with mass spectrometry; GFP-Trap agarose beads on protein extracts of 7-day-old A. thaliana seedlings expressing bZIP18-GFP or bZIP52-GFP; bound proteins identified by LC-MS/MS

binding: binds
B1: 14–3–3 ε (GRF10) (protein, UniProt P48347 1-254)
chain: MENEREKQVYLAKLSEQTERYDEMVEAMKKVAQLDVELTVEERNLVSVGYKNVIGARRASWRILSSIEQKEESKGNDENVKRLKNYRKRVEDELAKVCNDILSVIDKHLIPSSNAVESTVFFYKMKGDYYRYLAEFSSGAERKEAADQSLEAYKAAVAAAENGLAPTHPVRLGLALNFSVFYYEILNSPESACQLAKQAFDDAIAELDSLNEESYKDSTLIMQLLRDNLTLWTSDLNEEGDERTKGADEPQDEN

These are yes or no findings as the source states them, for the method shown. In cells and extracts the contact can be indirect. A yes stands for co-enrichment or nearness to the bait. Other partners may have been found.
